Results published in patent US11560400B2, “Salts of diphosphate phosphoramidate of nucleosides as anticancer compounds” (NuCana plc, priority 2017, dated 2023).
The name of at least one read-out is uncertain.

What was measured:
CCRF-CEM = assay: CellTiterGlo cell viability assay, CCRF-CEM; assay type: cell-based; settings: 72 h, percentage inhibition at the highest concentration tested
Description: (§1) A subset of compounds of the invention were assayed for their cytotoxic activity in an array of different solid tumours and haematological malignancies using the following assay.
(§2) In vitro viability assay were performed to assess the effects of compounds on cell viability in selected cell lines over 72 h using the CellTiterGlo (CTG, Promega-G7573) assay. The tests were performed in duplicates with treatment of compounds at 9 points, 3.16 folds titration in 96 well plates over ˜72 h. The compound starting concentrations were 198 μM. Cell viability assay using CellTiterGlo in 96-well plate were performed. Compound treatment 72 h, standard growth conditions, duplicates. Compounds were dissolved to 40 mM with thawed […]. Compounds were serially diluted at 3.16 fold in thawed DMSO, and warmed to 37° C. before being dissolved in media (2 μL+200 μL). After compounds were dissolved in media, media containing compounds were warmed to 37° C. in incubator and then compounds in media were added to cell plates (50 μL+50 μL) in duplicates. The compounds' final concentrations were from 198 μM to 19.8 nM. All compound solubilities were checked and recorded again, then the plates were transferred to CO2 tissue culture incubator immediately and incubated for 3 days. DMSO final concentration is 0.5%. The parent nucleoside in each case was tested as a comparator, as was an exemplary ProTide. […]

MCF-7 = assay: CellTiterGlo cell viability assay, MCF-7; assay type: cell-based; settings: MCF-7, 72 h, percentage inhibition at the highest concentration tested
Description: as §1, §2

HT29 = assay: CellTiterGlo cell viability assay, HT29; assay type: cell-based; settings: HT29, 72 h, percentage inhibition at the highest concentration tested
Description: as §1, §2

RPMI-8226 = assay: CellTiterGlo cell viability assay, RPMI-8226; assay type: cell-based, Human; settings: RPMI-8226, 72 h, percentage inhibition at the highest concentration tested
Description: as §1, §2

RL = assay: CellTiterGlo cell viability assay, RL; assay type: cell-based; settings: 72 h, percentage inhibition at the highest concentration tested
Description: as §1, §2

MOLT-4 = assay: CellTiterGlo cell viability assay, MOLT-4; assay type: cell-based; settings: MOLT-4, 72 h, percentage inhibition at the highest concentration tested
Description: as §1, §2

Structure (SMILES): C[C@H](NP(=O)(OC[C@H]1O[C@@H](n2cnc3c(N)nc(Cl)nc32)[C@H](F)C1O)Oc1ccccc1)C(=O)OCc1ccccc1 (stereo partly drawn) [A, reference compound]
- Top Inh (CCRF-CEM): 99%
- Top Inhibit (MCF-7): 99%
- Top Inhibit (HT29): 86%
- Top Inh (RPMI-8226): 94%
- Top Inh (RL): 90%
- Top Inh (MOLT-4): 100%
